Assay results from PMC11955279.

Chains of the proteins cited; added tags and fusions are not shown. Lines headed by an entry give the natural chain unless they say otherwise; changes in a name come on top.
UniProt O22456: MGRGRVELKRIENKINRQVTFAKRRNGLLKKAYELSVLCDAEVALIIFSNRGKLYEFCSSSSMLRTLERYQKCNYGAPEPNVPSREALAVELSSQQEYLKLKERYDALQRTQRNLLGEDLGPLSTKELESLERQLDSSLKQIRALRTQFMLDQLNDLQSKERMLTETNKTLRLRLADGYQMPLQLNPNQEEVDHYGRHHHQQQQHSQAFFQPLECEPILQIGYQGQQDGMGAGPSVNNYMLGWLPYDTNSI

How the values were obtained:
[1] = molecular target: GST-AtSEP3-DT5 L116A (Arabidopsis thaliana) (UniProt O22456); experiment: EMSA; settings: lane 2 is named SEP3-T5 in the legend, probably DT5; Room temperature; chemiluminescent EMSA kit GS009 (Biyun Tian); salt and pH not given; recombinant protein; residues 1-251; protein details: GST (pGEX-4T-3); label: biotin
[2] = molecular target: GST-AtSEP3 (wild type) (Arabidopsis thaliana) (UniProt O22456); experiment: EMSA; settings: Room temperature; chemiluminescent EMSA kit GS009 (Biyun Tian); salt and pH not given; recombinant protein; residues 1-251; protein details: GST (pGEX-4T-3); label: biotin
[3] = molecular target: GST-AtSEP3-T5 L99A,L101A,L108A,L115A,L116A (Arabidopsis thaliana) (UniProt O22456); experiment: EMSA; settings: Room temperature; chemiluminescent EMSA kit GS009 (Biyun Tian); salt and pH not given; recombinant protein; residues 1-251; protein details: GST (pGEX-4T-3); label: biotin
[4] = molecular target: GST-AtSEP3 (wild type) (Arabidopsis thaliana) (UniProt O22456); experiment: competition with a labelled probe; settings: unlabeled probe lowers the band of labeled N1; Room temperature; chemiluminescent EMSA kit GS009 (Biyun Tian); salt and pH not given; recombinant protein; residues 1-251; protein details: GST (pGEX-4T-3)

| Sequence | binding result [1] | binding result [2] | binding result [3] | binding result [4] |
| --- | --- | --- | --- | --- |
| TTTTCTAGGGCTTCCATTTTTGGATTTTTTGATTAGCC (double strand) [AP1 probe (single CArG box), labeled] | binds more weakly | binds | binds more weakly | – |
| TTTTCTAGGGCTTCCATTTTTGGATTTTTTGATTAGCC (double strand) [AP1 probe, unlabeled competitor] | – | – | – | binds |

Construct, isoform or probe ends are uncertain for at least one entry. For some of these results: Weaker means in comparison with the reference protein, sequence or condition of that experiment.
